These results are taken from US12378320B2, “Methods for treating pancreatitis” (Cold Spring Harbor Laboratory, priority 2018, dated 2025).

The chains are these.
B1: P40142 (protein, UniProt P40142 1-623, looked up)
chain: MEGYHKPDQQKLQALKDTANRLRISSIQATTAAGSGHPTSCCSAAEIMAVLFFHTMRYKALDPRNPHNDRFVLSKGHAAPILYAVWAEAGFLPEAELLNLRKISSDLDGHPVPKQAFTDVATGSLGQGLGAACGMAYTGKYFDKASYRVYCMLGDGEVSEGSVWEAMAFAGIYKLDNLVAIFDINRLGQSDPAPLQHQVDIYQKRCEAFGWHTIIVDGHSVEELCKAFGQAKHQPTAIIAKTFKGRGITGIEDKEAWHGKPLPKNMAEQIIQEIYSQVQSKKKILATPPQEDAPSVDIANIRMPTPPSYKVGDKIATRKAYGLALAKLGHASDRIIALDGDTKNSTFSELFKKEHPDRFIECYIAEQNMVSIAVGCATRDRTVPFCSTFAAFFTRAFDQIRMAAISESNINLCGSHCGVSIGEDGPSQMALEDLAMFRSVPMSTVFYPSDGVATEKAVELAANTKGICFIRTSRPENAIIYSNNEDFQVGQAKVVLKSKDDQVTVIGAGVTLHEALAAAESLKKDKISIRVLDPFTIKPLDRKLILDSARATKGRILTVEDHYYEGGIGEAVSAAVVGEPGVTVTRLAVSQVPRSGKPAELLKMFGIDKDAIVQAVKGLVTKG
modifications: full-length
B2: Q8BHN3 (protein, UniProt Q8BHN3 1-944, looked up)
chain: MAAIAAVAARRRRSWLSLVLAYLGVCLGITLAVDRSNFKTCDESSFCKRQRSIRPGLSPYRALLDTLQLGPDALTVHLIHEVTKVLLVLELQGLQKNMTRIRIDELEPRRPRYRVPDVLVADPPTARLSVSGRDDNSVELTVAEGPYKIILTAQPFRLDLLEDRSLLLSVNARGLMAFEHQRAPRVPQESKDPAEGNGAQPEATPGDGDKPEETQEKAEKDEPGAWEETFKTHSDSKPYGPTSVGLDFSLPGMEHVYGIPEHADSLRLKVTEGGEPYRLYNLDVFQYELNNPMALYGSVPVLLAHSFHRDLGIFWLNAAETWVDISSNTAGKTLFGKMLDYLQGSGETPQTDIRWMSESGIIDVFLMLGPSVFDVFRQYASLTGTQALPPLFSLGYHQSRWNYRDEADVLEVDQGFDDHNMPCDVIWLDIEHADGKRYFTWDPTRFPQPLNMLEHLASKRRKLVAIVDPHIKVDSGYRVHEELRNHGLYVKTRDGSDYEGWCWPGSASYPDFTNPRMRAWWSNMFSFDNYEGSAPNLYVWNDMNEPSVFNGPEVTMLKDAVHYGGWEHRDIHNIYGLYVHMATADGLIQRSGGIERPFVLSRAFFSGSQRFGAVWTGDNTAEWDHLKISIPMCLSLALVGLSFCGADVGGFFKNPEPELLVRWYQMGAYQPFFRAHAHLDTGRREPWLLASQYQDAIRDALFQRYSLLPFWYTLFYQAHKEGFPVMRPLWVQYPEDMSTFSIEDQFMLGDALLIHPVSDAGAHGVQVYLPGQEEVWYDIQSYQKHHGPQTLYLPVTLSSIPVFQRGGTIVPRWMRVRRSSDCMKDDPITLFVALSPQGTAQGELFLDDGHTFNYQTRHEFLLRRFSFSGSTLVSSSADPKGHLETPIWIERVVIMGAGKPAAVVLQTKGSPESRLSFQHDPETSVLILRKPGVSVASDWSIHLR
modifications: full-length
B3: Q8BP47 (protein, UniProt Q8BP47 1-559, looked up)
chain: MSSEVIRGTAEMVLAELYVSDREGNDATGDGTKEKPFKTGLKALMTVGKEPFPTIYVDSQKENERWDVISKSQMKNIKKMWHREQMKNDSREKKEAEDNLRREKNLEEAKKIIIKNDPSLPEPACVKISALEGYRGQRVKVFGWVHRLRRQGKNLMFLVLRDGTGYLQCVLSDDLCQCYNGVVLSTESSVAVYGTLNLTPKGKQAPGGHELSCDFWELVGLAPAGGADNLINEESDVDVQLNNRHMMIRGENMSKILKARSMITRCFRDHFFDRGYCEVTTPTLVQTQVEGGATLFKLDYFGEEAFLTQSSQLYLETCLPALGDVFCIAQSYRAEQSRTRRHLAEFTHVEAECPFLTFEDLLNRLEDLVCDVVDRVLKSPVASIVYELNPNFKPPKRPFRRMNYSDAIEWLKEHDVKKEDGTFYEFGDDIPEAPERLMTDTINEPILLCRFPVEIKSFYMQRCPEDPRLTESVDVLMPNVGEIVGGSMRSWDSEEILEGYKREGIDPAPYYWYTDQRKYGTCPHGGYGLGLERFLSWILNRYHIRDVCLYPRFLQRCRP
modifications: full-length
B4: Q6PE01 (protein, UniProt Q6PE01 1-358, looked up)
chain: MIEQQKRKGPELPLVPVKRPRHELLLGAAGAGPGAGPQQATPGALLQAGPPRCSSLQAPIMLLSGHEGEVYCCKFHPNGSTLASAGFDRLILLWNVYGDCDNYATLKGHSGAVMELHYNTDGSMLFSASTDKTVAVWDSETGERVKRLKGHTSFVNSCYPARRGPQLVCTGSDDGTVKLWDIRKKAAVQTFQNTYQVLAVTFNDTSDQIISGGIDNDIKVWDLRQNKLTYTMRGHADSVTGLSLSSEGSYLLSNAMDNTVRVWDVRPFAPKERCVKIFQGNVHNFEKNLLRCSWSPDGSKIAAGSADRFVYVWDTTSRRVLYKLPGHAGSINEVAFHPDEPIILSASSDKRLYMGEIQ
modifications: full-length
B5: Q9Z1Z2 (protein, UniProt Q9Z1Z2 1-350, looked up)
chain: MAMRQTPLTCSGHTRPVVDLAFSGITPYGYFLISACKDGKPMLRQGDTGDWIGTFLGHKGAVWGATLNKDATKAATAAADFTAKVWDAVSGDELMTLAHKHIVKTVDFTQDSNYLLTGGQDKLLRIYDLNKPEAEPKEISGHTSGIKKALWCSDDKQILSADDKTVRLWDHATMTEVKSLNFNMSVSSMEYIPEGEILVITYGRSIAFHSAVSLEPIKSFEAPATINSASLHPEKEFLVAGGEDFKLYKYDYNSGEELESYKGHFGPIHCVRFSPDGELYASGSEDGTLRLWQTVVGKTYGLWKCVLPEEDSGELAKPKIGFPETAEEELEEIASENSDSIYSSTPEVKA
modifications: full-length
B6: Q61171 (protein, UniProt Q61171 1-198, looked up)
chain: MASGNAQIGKSAPDFTATAVVDGAFKEIKLSDYRGKYVVLFFYPLDFTFVCPTEIIAFSDHAEDFRKLGCEVLGVSVDSQFTHLAWINTPRKEGGLGPLNIPLLADVTKSLSQNYGVLKNDEGIAYRGLFIIDAKGVLRQITVNDLPVGRSVDEALRLVQAFQYTDEHGEVCPAGWKPGSDTIKPNVDDSKEYFSKHN
modifications: full-length
B7: P18528 (protein, UniProt P18528 1-98, looked up)
chain: EVQLVESGGGLVKPGGSLKLSCAASGFTFSDYYMYWVRQTPEKRLEWVATISDGGSYTYYPDSVKGRFTISRDNAKNNLYLQMSSLKSEDTAMYYCAR
modifications: full-length
B8: P98086 (protein, UniProt P98086 1-245, looked up)
chain: METSQGWLVACVLTMTLVWTVAEDVCRAPNGKDGAPGNPGRPGRPGLKGERGEPGAAGIRTGIRGFKGDPGESGPPGKPGNVGLPGPSGPLGDSGPQGLKGVKGNPGNIRDQPRPAFSAIRQNPMTLGNVVIFDKVLTNQESPYQNHTGRFICAVPGFYYFNFQVISKWDLCLFIKSSSGGQPRDSLSFSNTNNKGLFQVLAGGTVLQLRRGDEVWIEKDPAKGRIYQGTEADSIFSGFLIFPSA
modifications: full-length
B9: Q8VED5 (protein, UniProt Q8VED5 1-531, looked up)
chain: MRSSLSRQTFSTKGGFSSNSASGGGGSRMRTSYSSVTMSRGSGGGGGVRSGSSSGGFGSRSLYNLGGKNISVSMACGASSGRALGGFGSGAYVGLGASRQTFGPVCPPGGIQEVTVNQSLLTPLNVEIDPEIQRVRTQEREQIKTLNNKFASFIDKVRFLEQQNKVLETKWALLQEQSQNTGVARSLEPFFENYLSTLRRQLDTKQSERGRLDMELRNVQDNLEDFKNKYEDEINKRTALENEFVLLKKDVDAAYMGRMDLHGKVDSLTQEIDFLQQLFEMELSQVQTNVSDTNVILSMDNNRNLDLDSIIAEVKAQYELIAQKSRAEAESWYQTKYEELQVTAGKHGDSLRDTKNEIAELTRTTQRLQGEVDAAKKQCQQLQTAIAEAEQNGEMALKDAKKKLGDLDTALHQAKEDLARMLREYQDLVSVKLALDMEIATYRKLLESEESRMSGDCPSAISISVTGNSTSVCAGGTAGFGNGLSLGGAGGASKGGFGSSVSYGAAKGGQVSGGTSILRKTTTVKTSSRRY
modifications: full-length
B10: Q9DCV7 (protein, UniProt Q9DCV7 1-457, looked up)
chain: MSIHFSSRSTAYPGRGAQVRLSSGRASFGSRSLYGLGSSRPRVAVRSAYGGPVGAGIREITINQSLLAPLSVDIDPTIQQVRQEEREQIKTLNNKFASFIDKVRFLEQQNKMLETKWALLQEQKSAKSSQLPRIFEAQIAGLRQQLETLQLDGGRLEVELRNMQDVVEDFKNKYEEEINRRTAAENEFVLLKKDVDAAYTNKVELEAKADSLQDEINFLKTLHETELAELQSQISDTSVVLSMDNSRSLDLDGIIADVKAQYEEMANHSRAEAEAWYQTKFETLQAQAGKHGDDLRNTRNEIAEMNRSIQRLQAEIDTLKNQRAKLESSIAEAEEQGELAIKDAHAKQGELEAALQKAKQDVARQLREYQELLNTKLALDIEIATYRKLLEGEESRLSGDGMGPVNISVVNSTGGNGGKLIFGGTMGSNALSFSGGPGALRAYSIKTTSTTRRGTHN
modifications: full-length

The first data set concerns CA19-9 modified proteins. The experiment in a line: CA19-9 IP/MS (iTRAQ) of organoid conditioned media after Dox treatment. Further details: species or system mouse. The settings on record: A217 (genetic negative) organoids conditioned media, after 8 hours of treatment, CA19-9 IP with 5B1; relative to 17 0H NS19.
Turning to B1, the “17 8H 5B1” value was 1.672.
For the molecule B2, the “17 8H 5B1” value came out at 6.225.
Still for that read-out and setting: as for B3, the figure is 2.31; as for B4, 3.131.
With B5, the “17 8H 5B1” value is reported as 2.843.
With B6, the “17 8H 5B1” value came to 2.046.
Same read-out and setting: as for B7, the figure is 0.387; as for B8, 0.151.

The same data set, now with this note: A217 (genetic negative) organoids conditioned media, after 8 hours of treatment, CA19-9 IP with NS19-9; relative to 17 0H NS19.
For the molecule B1, the “17 8H NS19” value was found to be 0.524.
On the same count and under the same terms, as for B2, the figure is 0.476; as for B3, 0.588.
The same measure, in the same setting: the same measure for B4: 0.17.
Still for that read-out and setting: as for B5, the figure is 0.914; as for B6, 0.513; as for B7, 0.679.
In the case of B8, the “17 8H NS19” value was found to be 0.082.

The same data set, now with this note: A217 (genetic negative) organoids conditioned media, before treatment (0H), CA19-9 IP with NS19-9; relative abundance, reference channel.
Turning to B1, the “17 0H NS19” value is reported as 1.
Consider B2, for which the “17 0H NS19” value was 1.
Same read-out and setting: as for B3, the figure is 1; as for B4, 1; as for B5, 1.
Regarding B6, the “17 0H NS19” value came to 1.
Same read-out and setting: as for B7, the figure is 1.
As for B8, the “17 0H NS19” value worked out at 1.

The data set is the same for the next values; noted with them: A220 (C;R^LSL;F) organoids conditioned media, before treatment (0H), CA19-9 IP with 5B1; relative to 17 0H NS19.
Take B1: the “20 0H 5B1” value is 1.923.
Same read-out and setting: as for B2, the figure is 4.305; as for B3, 1.962.
Same read-out and setting: the same measure for B4: 2.697; for B5: 2.352; for B6: 1.655.
Same read-out and setting: as for B7, the figure is 0.369.
As for B8, the “20 0H 5B1” value was 0.068.

Staying with this data set, now noted: CA19-9 IP/MS relative abundance; A217 (genetic negative) organoid conditioned media, 0H (before treatment), IP with NS19-9; reference channel = 1.
Take B9: the “17 0H NS19” value turned out to be 1.
On the same count and under the same terms, the same measure for B10: 1.

Still in this data set, the particulars now being: CA19-9 IP/MS relative abundance; A217 (genetic negative) organoid conditioned media, after 8 hours, IP with 5B1.
For B9, the “17 8H 5B1” value was 0.726.
Still for that read-out and setting: the same measure for B10: 3.691.

Staying with this data set, now noted: CA19-9 IP/MS relative abundance; A217 (genetic negative) organoid conditioned media, after 8 hours, IP with NS19-9.
In the case of B9, the “17 8H NS19” value came out at 1.679.
On the same count and under the same terms, as for B10, the figure is 1.01.

Staying with this data set, now noted: CA19-9 IP/MS relative abundance; A220 (C;R^LSL;F) organoid conditioned media, 0H (before treatment), IP with 5B1.
As for B9, the “20 0H 5B1” value is given as 1.138.
Consider B10, for which the “20 0H 5B1” value came out at 3.596.
